Data reported in paper PMC12012171.
No constants are given. Whether binding was seen depends on the method and setting. Binding seen in cells or lysates may run through a third protein. Some binding calls cover weakened binding; strength is not graded here.

Target: T1, SNAP-23 (mouse (endogenous in BMMCs)) (UniProt O09044)
T1 sequence: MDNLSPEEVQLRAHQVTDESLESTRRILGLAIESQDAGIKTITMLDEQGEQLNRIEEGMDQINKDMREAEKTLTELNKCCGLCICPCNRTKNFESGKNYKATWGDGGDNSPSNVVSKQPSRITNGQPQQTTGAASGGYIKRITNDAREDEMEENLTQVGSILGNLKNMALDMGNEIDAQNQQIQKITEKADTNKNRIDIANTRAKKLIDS
Assay: co-IP; lysates of IgE-primed WT and PRL2-KO BMMCs, resting or stimulated with DNP-BSA for indicated time; incubated with SNAP-23 antibodies overnight at 4 °C, rProtein A/G Agarose Resin 3 h at 4 °C; western blot

- binding: binds weakly
B1: VAMP-8 (protein, UniProt O70404 1-101)
chain: MEEASGSAGNDRVRNLQSEVEGVKNIMTQNVERILSRGENLDHLRNKTEDLEATSEHFKTTSQKVARKFWWKNVKMIVIICVIVLIIVILIILFATGTIPT
